# Measurements reported in PubChem BioAssay AID652243 (Drosophila RNAi Screening Center, 2013)
# Test: 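Knock-downs that decrease or increase androgen receptor reporter signal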 (primary screen)
# System: Drosophila S2R+ cells
# Knock-down reagent: long dsRNA against Drosophila genes
# Time to read-out: 72 h (48 h, then 24 h hormone)
# Treatment: synthetic androgen R1881 at 10 nM for 24 h
# Read-out: 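Per-well raw luminescence of the androgen-driven firefly reporter and of the Renilla control, two replicates each, without normalisation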
# Reading the numbers: firefly reporter light: higher = more light from androgen-responsive reporter; Renilla control light: higher = more constitutive control signal (cell number, transfection)
# Hit rule: 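Hit when the log firefly-to-Renilla ratio dropped or increased by a fixed fold versus the mean of GFP or LacZ controls across duplicate plates; lowering cut given as 1.5 and as 3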
# Meaning of the calls: active = hit: reporter lowered or raised; inactive = no hit
# In all, the deposit lists about 24,000 reagents; this is an unselected part of those that have a named target and a result. Of all reagents, 246 (1%) got an active call. 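Plates not normalised; calls are printed but the firefly/Renilla ratio behind them is not deposited; fold cut for lowering reported inconsistently.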 Raw values are not corrected between plates. Names joined by + are all predicted targets of the reagent. Reagent sequences are not shown. The record does not give: the amount of reagent.
gene,PubChem SID,"firefly reporter light, replicate 1","firefly reporter light, replicate 2","Renilla control light, replicate 1","Renilla control light, replicate 2",Call
CG6034,SID104190364,2.36e5,1.71e5,1.64e6,1.15e6,inactive
CG6034,SID104205838,4.34e5,4.90e5,5.22e5,4.49e5,inactive
CG14448,SID104191497,2.18e5,2.75e5,3.14e6,3.38e6,inactive
CG14448,SID104208606,8.11e5,7.62e5,8.24e5,7.65e5,inactive
pb (proboscipedia),SID104192201,2.11e5,2.80e5,2.18e5,2.16e5,inactive
pb (proboscipedia),SID104192421,91391,56249,2.10e6,1.01e6,inactive
pb (proboscipedia),SID104203605,3.59e5,3.05e5,3.70e5,4.89e5,inactive
CG8908,SID104187089,80138,72346,9.95e5,9.94e5,inactive
NAAT1 (Nutrient Amino Acid Transporter 1),SID104198092,2.04e5,2.54e5,2.11e6,1.60e6,inactive
NAAT1 (Nutrient Amino Acid Transporter 1),SID104204159,4.87e5,5.82e5,4.59e5,5.93e5,inactive
PpN58A (Protein phosphatase N at 58A),SID104184434,1.63e6,1.52e6,2.21e6,2.04e6,inactive
PpN58A (Protein phosphatase N at 58A),SID104206787,6.03e5,9.29e5,1.09e6,1.72e6,inactive
Ca-alpha1T (Ca[2+]-channel protein alpha[[1]] subunit T),SID104197634,2.58e5,1.50e5,3.11e6,2.13e6,inactive
Ca-alpha1T (Ca[2+]-channel protein alpha[[1]] subunit T),SID104197895,2.79e5,2.14e5,2.32e6,1.84e6,inactive
Ca-alpha1T (Ca[2+]-channel protein alpha[[1]] subunit T),SID104198148,1.13e5,2.42e5,2.03e6,1.75e6,inactive
Ca-alpha1T (Ca[2+]-channel protein alpha[[1]] subunit T),SID104198149,4.27e5,4.31e5,2.43e6,2.89e6,inactive
Ca-alpha1T (Ca[2+]-channel protein alpha[[1]] subunit T),SID104201177,6.38e5,6.48e5,2.61e6,2.51e6,inactive
CG11970,SID104193949,49360,64519,2.67e5,2.47e5,inactive
dpy (dumpy),SID104180025,1.09e5,1.07e5,6.17e5,4.59e5,inactive
dpy (dumpy),SID104180026,2.44e5,1.78e5,5.12e5,4.81e5,inactive
dpy (dumpy),SID104180264,1.67e5,1.39e5,9.79e5,8.39e5,inactive
WASp,SID104194824,1.66e5,1.74e5,2.83e6,2.92e6,inactive
WASp,SID104204714,3.66e5,3.84e5,4.55e5,5.26e5,inactive
CG32694,SID104197636,2.46e5,3.40e5,2.40e6,3.02e6,inactive
CG32694,SID104197647,4.53e5,5.83e5,2.70e6,3.43e6,inactive
CG32694,SID104202066,3.82e5,3.55e5,6.91e5,5.57e5,inactive
CG32694,SID104204274,1.16e6,1.14e6,1.59e6,1.85e6,inactive
CG32694,SID104204275,1.15e6,1.42e6,1.31e6,1.59e6,inactive
CG31446,SID104192903,67718,65504,1.12e5,1.28e5,inactive
eIF1A (eukaryotic translation initiation factor 1A),SID104196729,1.75e5,2.30e5,1.01e6,1.12e6,inactive
CG14720,SID104194734,1.16e5,1.36e5,1.85e6,1.29e6,inactive
RpLP1 (Ribosomal protein LP1),SID104180575,1.43e5,1.45e5,3.75e5,3.92e5,inactive
RpLP1 (Ribosomal protein LP1),SID104201696,3.55e5,4.09e5,3.78e5,4.52e5,inactive
RpLP1 (Ribosomal protein LP1),SID104202725,8.05e5,4.65e5,8.63e5,3.42e5,inactive
CG5561,SID104180480,1.02e5,1.71e5,7.50e5,1.03e6,inactive
Arl2 (ADP ribosylation factor-like 2),SID104193909,74224,88604,2.34e6,1.34e6,inactive
CSN1b (COP9 signalosome subunit 1b),SID104190900,42103,30234,3.70e5,3.75e5,inactive
CG18294 + 825-Oak + CG32214 + 2 more,SID104201746,5.89e5,6.43e5,9.16e5,9.68e5,inactive
jub (Ajuba LIM protein),SID104199159,7677,10572,1.13e5,1.86e5,active
jub (Ajuba LIM protein),SID104204769,2.74e5,2.36e5,4.99e5,5.86e5,inactive
Chmp1 (Charged multivesicular body protein 1),SID104190193,37061,25543,5.34e5,2.75e5,inactive
Chmp1 (Charged multivesicular body protein 1),SID104204422,8.50e5,8.59e5,1.15e6,1.25e6,inactive
Chmp1 (Charged multivesicular body protein 1),SID104216635,5.98e5,5.00e5,1.74e6,1.54e6,inactive
Ostgamma (Oligosaccharide transferase gamma subunit),SID104182866,6.90e5,8.02e5,1.24e6,1.13e6,inactive
frac (faulty attraction),SID104190659,1.11e6,9.73e5,1.41e6,1.47e6,inactive
frac (faulty attraction),SID104207783,4.88e5,5.47e5,1.91e6,1.50e6,inactive
IleRS (Isoleucyl-tRNA synthetase),SID104191459,45328,82481,4.16e5,4.76e5,inactive
Hr39 (Hormone receptor-like in 39),SID104183138,8.22e5,5.48e5,1.81e6,2.12e6,inactive
Hr39 (Hormone receptor-like in 39),SID104204550,3.36e5,3.76e5,7.42e5,3.72e5,inactive
GXIVsPLA2,SID104190035,29258,17086,1.95e5,2.13e5,inactive
GXIVsPLA2,SID104207905,4.61e5,6.89e5,1.06e6,1.06e6,inactive
CG14007,SID104182131,55668,71155,8.63e5,8.44e5,inactive
IntS2 (Integrator 2),SID104199886,1.31e5,2.29e5,1.05e6,1.03e6,inactive
CG13155,SID104186072,2.61e5,2.26e5,1.24e6,1.63e6,inactive
TwdlF (TweedleF),SID104192017,24588,42037,3.11e5,2.70e5,inactive
TwdlF (TweedleF),SID104205802,3.96e5,3.74e5,7.25e5,8.69e5,inactive
CG15765,SID104202383,6.16e5,6.34e5,1.09e6,1.09e6,inactive
CG15765,SID104207815,4.21e5,4.16e5,6.03e5,6.07e5,inactive
CG34196,SID104216439,1.00e6,7.53e5,1.93e6,1.64e6,inactive
Dad1 (Defender against apoptotic cell death 1),SID104182055,2.31e5,1.50e5,1.73e6,9.83e5,inactive
CG10993,SID104199154,4.44e5,4.47e5,2.89e6,3.54e6,inactive
ND-20L (NADH dehydrogenase (ubiquinone) 20 kDa subunit-like),SID104195206,2.37e5,3.06e5,2.21e6,3.85e6,inactive
rdgBbeta,SID104187464,1.13e5,91202,2.86e6,2.86e6,inactive
CG33061,SID104189730,2.97e5,3.07e5,2.45e6,1.85e6,inactive
CG33061,SID104202256,8.60e5,1.13e6,9.44e5,1.46e6,inactive
CG5910,SID104191578,2.73e5,1.69e5,2.80e6,1.44e6,inactive
CG30054,SID104185146,1.71e5,1.54e5,5.02e5,3.06e5,inactive
Ptp10D (Protein tyrosine phosphatase 10D),SID104200064,2.20e5,1.79e5,3.02e6,2.32e6,inactive
Ptp10D (Protein tyrosine phosphatase 10D),SID104214210,,,,,inactive
Ptp10D (Protein tyrosine phosphatase 10D),SID104214211,,,,,inactive
Ptp10D (Protein tyrosine phosphatase 10D),SID104216689,6.50e5,8.34e5,1.33e6,2.17e6,inactive
CG31975 + ovm,SID104180115,1.12e5,79986,5.93e5,5.17e5,inactive
CG15186,SID104192358,42754,48358,8.62e5,7.43e5,inactive
CG15186,SID104204815,4.84e5,4.60e5,6.41e5,7.49e5,inactive

In a second layout: 3 of the entries above
gene | PubChem SID | firefly reporter light, replicate 1 | firefly reporter light, replicate 2 | Renilla control light, replicate 1 | Renilla control light, replicate 2 | Call
WASp | SID104194824 | 1.66e5 | 1.74e5 | 2.83e6 | 2.92e6 | inactive
WASp | SID104204714 | 3.66e5 | 3.84e5 | 4.55e5 | 5.26e5 | inactive
CG32694 | SID104197636 | 2.46e5 | 3.40e5 | 2.40e6 | 3.02e6 | inactive
